The values that follow come from paper PMC5341751.

In the experiment the target is CD147-GFP (human). The experiment is described as follows: affinity purification with mass spectrometry; cells incubated with 0.5 mM DSS 30 min at RT, lysed in RIPA; 500 ug lysate on GFP-nanobody beads 1 h at 4 °C; gel, LC-MS/MS; GFP control.

Results are given in words; binding and its absence hold for the method and conditions named. Binding seen in cells or lysates may run through a third protein. These calls come from enrichment with a bait or labelling near it, and not all partners need be listed.

B1: alanine/serine/cysteine transporter 2 (ASCT2) (protein, UniProt Q15758 1-541)
chain: MVADPPRDSKGLAAAEPTANGGLALASIEDQGAAAGGYCGSRDQVRRCLRANLLVLLTVVAVVAGVALGLGVSGAGGALALGPERLSAFVFPGELLLRLLRMIILPLVVCSLIGGAASLDPGALGRLGAWALLFFLVTTLLASALGVGLALALQPGAASAAINASVGAAGSAENAPSKEVLDSFLDLARNIFPSNLVSAAFRSYSTTYEERNITGTRVKVPVGQEVEGMNILGLVVFAIVFGVALRKLGPEGELLIRFFNSFNEATMVLVSWIMWYAPVGIMFLVAGKIVEMEDVGLLFARLGKYILCCLLGHAIHGLLVLPLIYFLFTRKNPYRFLWGIVTPLATAFGTSSSSATLPLMMKCVEENNGVAKHISRFILPIGATVNMDGAALFQCVAAVFIAQLSQQSLDFVKIITILVTATASSVGAAGIPAGGVLTLAIILEAVNLPVDHISLILAVDWLVDRSCTVLNVEGDALGAGLLQNYVDRTESRSTEPELIQVKSELPLDPLPVPTEEGNPLLKHYRGPAGDATVASEKESVM
Take B1: the binding entry is recorded as “binds”.

B2: monocarboxylate transporter MCT4 (protein, UniProt O15427 1-465)
chain: MGGAVVDEGPTGVKAPDGGWGWAVLFGCFVITGFSYAFPKAVSVFFKELIQEFGIGYSDTAWISSILLAMLYGTGPLCSVCVNRFGCRPVMLVGGLFASLGMVAASFCRSIIQVYLTTGVITGLGLALNFQPSLIMLNRYFSKRRPMANGLAAAGSPVFLCALSPLGQLLQDRYGWRGGFLILGGLLLNCCVCAALMRPLVVTAQPGSGPPRPSRRLLDLSVFRDRGFVLYAVAASVMVLGLFVPPVFVVSYAKDLGVPDTKAAFLLTILGFIDIFARPAAGFVAGLGKVRPYSVYLFSFSMFFNGLADLAGSTAGDYGGLVVFCIFFGISYGMVGALQFEVLMAIVGTHKFSSAIGLVLLMEAVAVLVGPPSGGKLLDATHVYMYVFILAGAEVLTSSLILLLGNFFCIRKKPKEPQPEVAAAEEEKLHKPPADSGVDLREVEHFLKAEPEKNGEVVHTPETSV
As to B2, the binding entry is reported as “binds”.
